Laboratory results taken from US20060239988A1, “Neuronal regeneration and compound administration methods” (priority 2003, published 2006).
Results are given in words; binding and its absence hold for the method and conditions named. In cells and extracts the contact can be indirect. Some results given as binding are weak or reduced against the parent protein; the word gives no strength.

By UniProt entry, the sequences of proteins in these tests, tags left out. Residues count along the entry.
UniProt P31000, residues 2-466: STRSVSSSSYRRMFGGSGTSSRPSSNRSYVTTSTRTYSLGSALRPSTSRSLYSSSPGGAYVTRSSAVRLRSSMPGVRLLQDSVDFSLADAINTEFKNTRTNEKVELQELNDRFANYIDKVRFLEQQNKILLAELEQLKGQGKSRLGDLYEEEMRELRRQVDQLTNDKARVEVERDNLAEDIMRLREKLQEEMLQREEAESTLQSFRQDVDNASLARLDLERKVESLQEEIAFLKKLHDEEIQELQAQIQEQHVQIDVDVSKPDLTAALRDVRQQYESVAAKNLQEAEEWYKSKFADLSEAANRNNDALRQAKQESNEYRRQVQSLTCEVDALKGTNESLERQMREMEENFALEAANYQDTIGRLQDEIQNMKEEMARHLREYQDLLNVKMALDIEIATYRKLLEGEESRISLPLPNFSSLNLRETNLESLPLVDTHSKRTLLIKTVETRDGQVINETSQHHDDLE
UniProt P21708, residues 2-380: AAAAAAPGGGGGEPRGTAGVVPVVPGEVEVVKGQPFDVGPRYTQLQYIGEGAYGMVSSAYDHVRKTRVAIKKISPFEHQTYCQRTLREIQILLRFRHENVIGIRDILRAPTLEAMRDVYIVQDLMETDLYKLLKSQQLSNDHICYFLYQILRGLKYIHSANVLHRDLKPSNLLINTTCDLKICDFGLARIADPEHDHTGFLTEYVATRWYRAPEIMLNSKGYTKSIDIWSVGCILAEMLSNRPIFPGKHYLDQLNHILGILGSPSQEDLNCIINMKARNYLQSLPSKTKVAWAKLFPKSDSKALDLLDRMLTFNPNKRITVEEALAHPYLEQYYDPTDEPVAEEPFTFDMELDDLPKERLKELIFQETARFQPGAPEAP
UniProt P63086, residues 2-358: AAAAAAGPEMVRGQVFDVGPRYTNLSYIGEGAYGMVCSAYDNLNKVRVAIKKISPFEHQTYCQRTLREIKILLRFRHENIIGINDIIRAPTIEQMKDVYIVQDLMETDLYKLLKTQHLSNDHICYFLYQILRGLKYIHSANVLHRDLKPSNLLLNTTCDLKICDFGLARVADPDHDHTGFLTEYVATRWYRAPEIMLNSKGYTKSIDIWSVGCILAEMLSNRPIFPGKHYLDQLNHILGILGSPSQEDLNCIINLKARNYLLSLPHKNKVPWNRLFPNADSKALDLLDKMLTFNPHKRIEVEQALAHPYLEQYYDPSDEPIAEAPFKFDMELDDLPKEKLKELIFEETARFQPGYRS

Columns and labels:
[1] = target: soluble endogenous vimentin of rat sciatic nerve axoplasm (rat) (UniProt P31000); assay: co-immunoprecipitation with anti vimentin antibody from rat sciatic nerve axoplasm, Western blot
[2] = target: soluble endogenous vimentin of rat sciatic nerve axoplasm (rat) (UniProt P31000); assay: co-immunoprecipitation from 500 micrograms rat sciatic nerve axoplasm 0-6 hours post-lesion, Western blot for pERK
[3] = target: ERK1 in the non-phosphorylated state, rat sciatic nerve axoplasm (rat) (UniProt P21708); assay: co-immunoprecipitation and GST-pull down assay, injured rat sciatic nerve axoplasm
[4] = target: ERK2 in the non-phosphorylated state, rat sciatic nerve axoplasm (rat) (UniProt P63086); assay: as above
[5] = target: phosphorylated ERK1, rat sciatic nerve axoplasm (rat) (UniProt P21708); assay: as above
[6] = target: phosphorylated ERK2, rat sciatic nerve axoplasm (rat) (UniProt P63086); assay: as above
[7] = target: ERK1 in the non-phosphorylated state, rat sciatic nerve axoplasm (rat) (UniProt P21708); assay: co-immunoprecipitation with anti vimentin antibody from rat sciatic nerve axoplasm, Western blot for MAPK
[8] = target: ERK2 in the non-phosphorylated state, rat sciatic nerve axoplasm (rat) (UniProt P63086); assay: as above
[9] = target: phosphorylated ERK1, rat sciatic nerve axoplasm (rat) (UniProt P21708); assay: co-immunoprecipitation with anti vimentin antibody from rat sciatic nerve axoplasm, Western blot for phospho-MAPK
[10] = target: phosphorylated ERK2, rat sciatic nerve axoplasm (rat) (UniProt P63086); assay: as above

| binding [1] | binding [2] | binding [7] | binding [8] | binding [9] | binding [10] | Substance | binding [3] | binding [4] | binding [5] | binding [6] |
| --- | --- | --- | --- | --- | --- | --- | --- | --- | --- | --- |
| binds | binds | – | – | – | – | phosphorylated ERK1, rat sciatic nerve axoplasm (from UniProt P21708 2-380) (enzyme) | – | – | – | – |
| binds | binds | – | – | – | – | phosphorylated ERK2, rat sciatic nerve axoplasm (from UniProt P63086 2-358) (enzyme) | – | – | – | – |
| – | – | binds | binds | binds | binds | soluble endogenous vimentin of rat sciatic nerve axoplasm (from UniProt P31000 2-466) | binds | binds | binds | binds |
